PubChem BioAssay AID216 (DTP/NCI, 2004)
The list shows only some results of the screen, not a fair sample: it covers a few groups of compounds. Other doses and runs of a compound may be missing. T/C gives the treated animals as a percentage of the vehicle group. For survival time, the PubChem record calls one and a half times the control and up active, and a quarter to a half above the control has no call in these data; cut-offs in other NCI protocols can differ. Some T/C values are marked as having no survivor count here; that says nothing about deaths at the dose. Schedule codes are those of the source, read here as Q, the interval in days (D) or hours (H), X, the number of doses. Brackets with × say how often a value occurs here. Some entries were tested several times; the results are listed from low to high. Some schedules carry Z or #; the key to these is not given.

Test system: BDF1 mice, P288 leukemia ip, survival T/C
Test: NCI In Vivo Anticancer Drug Screen. Data for tumor model P288 Lymphocytic Leukemia (intraperitoneal) in B6D2F1 (BDF1) mice
Settings: T/C endpoint: survival time, mean or median, higher T/C = longer survival
Experimental: The antitumor activity of compounds was measured in mice bearing transplantable tumors. Survival or tumor size were measured and the results are expressed as the measurement made in the treated group (T) divided by the measurement made in the vehicle treated control group (C). The tumor model used in this assay is P288 Lymphocytic Leukemia (intraperitoneal) in B6D2F1 (BDF1) mice

[1] = dose: 0.5 mg/kg/injection, schedule: Q01DX010 (ip), vehicle: saline
[2] = dose: 1.0 mg/kg/injection, schedule: Q01DX010 (ip), vehicle: saline
[3] = dose: 2.5 mg/kg/injection, schedule: Q01DX010 (ip), vehicle: saline
[4] = dose: 5.0 mg/kg/injection, schedule: Q01DX010 (ip), vehicle: saline
[5] = dose: 0.63 mg/kg/injection, schedule: Q01DX010 (ip), vehicle: saline
[6] = dose: 1.25 mg/kg/injection, schedule: Q01DX010 (ip), vehicle: saline

In the case of `CC(C(=O)O)N(CCCl)CCCl` (stereo not drawn), the T/C [1] is reported as 100 % of control [survivor count not shown] (2×), the T/C [2] is reported as 105 [survivor count not shown] and 122 % of control [survivor count not shown] and the T/C (dose: 2.0 mg/kg/injection, schedule: Q01DX010 (ip), vehicle: saline) is reported as 100 [survivor count not shown] and 133 % of control [survivor count not shown]. For the same molecule, the T/C (dose: 4.0 mg/kg/injection, schedule: Q01DX010 (ip), vehicle: saline) was 116 [survivor count not shown] and 130 % of control [survivor count not shown] and the T/C (dose: 10.0 mg/kg/injection, schedule: Q01DX Z (ip), vehicle: carboxymethylcellulose (CMC)) was 86 % of control [survivor count not shown].
`ClCCN(CCCl)Cc1nc2ccccc2[nH]1` was tested, and the T/C (dose: 0.15 mg/kg/injection, schedule: Q01DX Z (ip), vehicle: carboxymethylcellulose (CMC)) was 95 % of control [survivor count not shown], the T/C (dose: 0.3 mg/kg/injection, schedule: Q01DX Z (ip), vehicle: carboxymethylcellulose (CMC)) was 89 % of control [survivor count not shown] and the T/C (dose: 0.6 mg/kg/injection, schedule: Q01DX Z (ip), vehicle: carboxymethylcellulose (CMC)) was 100 % of control [survivor count not shown]. For the same molecule, the T/C (dose: 1.2 mg/kg/injection, schedule: Q01DX Z (ip), vehicle: carboxymethylcellulose (CMC)) was 89 % of control [survivor count not shown], the T/C [3] was 95 % of control [survivor count not shown] and the T/C [4] was 95 [survivor count not shown], 113 [survivor count not shown], 115 % of control [survivor count not shown]. The T/C (dose: 10.0 mg/kg/injection, schedule: Q01DX010 (ip), vehicle: saline) was 95 [survivor count not shown], 115 [survivor count not shown], 118 % of control [survivor count not shown].
In the case of `ClCCNCCCl`, the T/C (dose: 3.1 mg/kg/injection, schedule: Q01DX Z (ip), vehicle: carboxymethylcellulose (CMC)) is reported as 91 % of control [survivor count not shown], the T/C (dose: 6.25 mg/kg/injection, schedule: Q01DX Z (ip), vehicle: carboxymethylcellulose (CMC)) is reported as 95 % of control [survivor count not shown] and the T/C (dose: 12.5 mg/kg/injection, schedule: Q01DX Z (ip), vehicle: carboxymethylcellulose (CMC)) is reported as 95 % of control [survivor count not shown]. The T/C (dose: 18.8 mg/kg/injection, schedule: Q01DX010 (ip), vehicle: saline) was 90 [survivor count not shown] and 100 % of control [survivor count not shown], the T/C (dose: 25.0 mg/kg/injection, schedule: Q01DX Z (ip), vehicle: carboxymethylcellulose (CMC)) was 91 % of control [survivor count not shown] and the T/C (dose: 37.5 mg/kg/injection, schedule: Q01DX010 (ip), vehicle: saline) was 95 [survivor count not shown] and 110 % of control [survivor count not shown]. For the same molecule, the T/C (dose: 50.0 mg/kg/injection, schedule: Q01DX Z (ip), vehicle: carboxymethylcellulose (CMC)) was 93 % of control [survivor count not shown] and the T/C (dose: 75.0 mg/kg/injection, schedule: Q01DX010 (ip), vehicle: saline) was 105 [survivor count not shown] and 120 % of control [survivor count not shown].
With `O=C(O)CN(CCCl)CCCl` the T/C (dose: 0.5 mg/kg/injection, schedule: Q01DX Z (ip), vehicle: saline) was 93 [survivor count not shown] and 94 % of control [survivor count not shown], the T/C [5] was 105 % of control [survivor count not shown] and the T/C (dose: 1.0 mg/kg/injection, schedule: Q01DX Z (ip), vehicle: saline) was 89 % of control [survivor count not shown]. For the same molecule, the T/C [6] was 120 [survivor count not shown] and 133 % of control [survivor count not shown], the T/C [3] was 133 [survivor count not shown] and 135 % of control [survivor count not shown] and the T/C [4] was 133 % of control [survivor count not shown].
With `NC(Cc1ccccc1N(CCCl)CCCl)C(=O)O` (stereo not drawn) the T/C (dose: 0.06 mg/kg/injection, schedule: Q01DX Z (ip), vehicle: carboxymethylcellulose (CMC)) was 103 % of control [survivor count not shown], the T/C (dose: 0.12 mg/kg/injection, schedule: Q01DX Z (ip), vehicle: carboxymethylcellulose (CMC)) was 126 % of control [survivor count not shown] and the T/C (dose: 0.25 mg/kg/injection, schedule: Q01DX010 (ip), vehicle: saline) was 127 % of control [survivor count not shown]. For the same molecule, the T/C (dose: 0.25 mg/kg/injection, schedule: Q01DX Z (ip), vehicle: carboxymethylcellulose (CMC)) was 137 % of control [survivor count not shown], the T/C [1] was 188 % of control [survivor count not shown] and the T/C (dose: 0.5 mg/kg/injection, schedule: Q01DX Z (ip), vehicle: carboxymethylcellulose (CMC)) was 152 % of control [survivor count not shown]. For the same molecule, the T/C [2] was 288 % of control [survivor count not shown], the T/C (dose: 1.0 mg/kg/injection, schedule: Q01DX Z (ip), vehicle: carboxymethylcellulose (CMC)) was 173 % of control [survivor count not shown] and the T/C (dose: 2.0 mg/kg/injection, schedule: Q01DX Z (ip), vehicle: carboxymethylcellulose (CMC)) was 168 % of control [survivor count not shown]. For the same molecule, the T/C (dose: 4.0 mg/kg/injection, schedule: Q01DX Z (ip), vehicle: carboxymethylcellulose (CMC)) was 88 % of control [survivor count not shown].
With `NC(Cc1cccc(N(CCCl)CCCl)c1)C(=O)O` (stereo not drawn) the T/C (dose: 0.19 mg/kg/injection, schedule: Q01DX Z (ip), vehicle: carboxymethylcellulose (CMC)) was 113 % of control [survivor count not shown], the T/C (dose: 0.38 mg/kg/injection, schedule: Q01DX Z (ip), vehicle: carboxymethylcellulose (CMC)) was 101 % of control [survivor count not shown] and the T/C [5] was 109 % of control [survivor count not shown]. The T/C (dose: 0.75 mg/kg/injection, schedule: Q01DX Z (ip), vehicle: carboxymethylcellulose (CMC)) was 101 % of control [survivor count not shown], the T/C [6] was 122 [survivor count not shown] and 142 % of control [survivor count not shown] and the T/C (dose: 1.5 mg/kg/injection, schedule: Q01DX Z (ip), vehicle: carboxymethylcellulose (CMC)) was 130 % of control [survivor count not shown]. The T/C [3] was 118 [survivor count not shown] and 123 % of control [survivor count not shown].
